Assay results published in publication PMC10163288.
The other results are listed elsewhere or left out.

B1: il10ra_site1_sap_20_mot_HHH_b1_05357_000000034_0001_23_39_H_._HHH_b1_03033_0001_0000400019_0000002_0_0001_af2pred_0001 (protein)
chain: SSSSSRERAELILHLVRWLFEAGDEEAIKIFVKAIRDLYKKTGDPEIEKILEEAEELLEQLSSSS
B2: il10ra_site1_sap_23_mot_HHH_b2_00479_000000091_0001_1_12_H_._HHH_b1_06081_0001_0000500012_0000001_0_0001_af2pred_0001 (protein)
chain: SSSSSSDIEEEVERLLEEAEKIDDPLERSYVLVRAFAAANQNNNEELRRLVEEVAIKLTSSSSSS
B3: il10ra_site1_normal_mot_HHH_b2_02497_000000220_0001_1_20_H_._d4a0d7e14d3257bbacf2cba0c18c7893_0001_1_af2_0001_0000400025_0000001_0 (protein)
chain: DEEYELIREIIELAEDPELQRLLQLLIQFFIRGDPEVRELLEELVELLKQGDPEEAAELLKEFLK
B4: il10ra_site1_sap_25_mot_HHH_b1_02665_000000293_0001_1_18_H_._HHH_b1_05915_0001_0000100004_0000001_0_0001 (protein)
chain: SSSSSDEDEQHIRALLWFARYAPNPEAARMMLERALRLAEELGNEELLREAERLLEELNSSSSSS
B5: il10ra_site1_normal_mot_2b57f6184e3cbf08022d7a5dd7fdd81c_0001_af2_000000095_0001_34_50_H_._HHH_b1_00771_0001_0000300018_0000001_0 (protein)
chain: SSSSDELEEYAELALRFAEIAARNGDPETAKRILRVAIEALRNAGNPELVEELEELLEELSSSSS
B6: il10ra_site1_normal_mot_8756ee2cf497b5429c717dfc0c0bcfd6_0001_000000186_0001_1_13_H_._HHH_b2_07310_af2_0001_0000100002_0000001_0_1_af2pred_dldesign_0_af2pred (protein)
chain: SSSSSAEQERLKELIRRAAELLYAGRPEEAARLLAEAEELAKKLGNEVALRTLDYLRRHVESSSS
B7: il10ra_site1_sap_23_mot_HHH_b2_03220_af2_000000223_0001_23_40_H_._HHH_b1_07965_af2_0001_0000400006_0000002_0_0001 (protein)
chain: SSSSSEEERVEELLEEVEELRKEGDEKRAIEVLQEAVRLALRISDEELLQEIWEAAKALGSSSSS
B8: il10ra_site1_sap_15_mot_HHH_b1_02769_af2_000000118_0001_1_18_H_._HHH_b1_08389_0001_0000200013_0000001_0_0001 (protein)
chain: SSSSEEERIVELLFRAVEALANGNPEEAEKLVEEAEELARELGDEELERYIEIAKHFIEAHSSSS
B9: il10ra_site1_sap_20_mot_a6c796b944619e241e020fd597ddb6da_0001_af2_000000092_0001_15_31_H_._HHH_b2_01456_af2_0001_0000200013_0000002_0_0001 (protein)
chain: SSSDAREEVWELLREALELLANGDPEKAEEVIERARELAEEAGSRLFEHVIETLERQLELNSSSS
B10: il10ra_site1_normal_mot_8756ee2cf497b5429c717dfc0c0bcfd6_0001_000000186_0001_1_13_H_._HHH_b2_08062_af2_0001_0000200008_0000001_0 (protein)
chain: SSSSDEELEKLFELLRRIAELDHEGDKEEARELLEEAEELAKELGNDVARAQLEYLKELVNSSSS
B11: il10ra_site1_normal_mot_HHH_b1_00999_000000080_0001_41_55_H_._HHH_b2_06992_0001_0000100004_0000002_0 (protein)
chain: SSSSSSSEEEVEELLEEAKEIDDPKERNRVLLEALRIAIQNQNPELLRLVWEVVKRLGSSSSSSS
B12: il10ra_site1_normal_mot_HHH_b1_01880_000000285_0001_23_39_H_._HHH_b2_02582_0001_0000100002_0000002_0_af2pred_0001 (protein)
chain: SSSSSSDEFEELLEEAKRLAEEEGDEKIRIAIRIAERSYRESGDPKIKKLLKALLRLLSSSSSSS
B13: il10ra_site1_normal_mot_HHH_b1_03094_000000294_0001_1_20_H_._HHH_b1_08744_0001_0000100004_0000001_0 (protein)
chain: SSSSDEENQEALELSLEAVELLLRGNPEEAKEVLEEALELAERGNNERLARVIEDLLRVIDSSSS
B14: il10ra_site1_normal_mot_HHH_b1_02997_000000220_0001_39_52_H_._HHH_b1_04476_0001_0000500018_0000001_0_af2pred_dldesign_0_af2pred (protein)
chain: SSSSSSSNEEVVALLRRAMEEPDPEEAKRLAEEALRLAQANNNEILAHTAQLLLEQLESSSSSSS
B15: il10ra_site1_sap_15_mot_HHH_b1_03327_000000294_0001_1_19_H_._HHH_b1_01285_af2_0001_0000300013_0000001_0_0001 (protein)
chain: SSSSEEERVEELQEEIKELEEEGDYERVLRLLQEILRLIFQLGDKELLRRLWELLKKLAEERSSS
B16: il10ra_site1_normal_mot_1cde5897893f3d1588f92be3b001cdf2_0001_af2_000000130_0001_54_65_H_._HHH_b2_05489_0001_0000300015_0000001_1_af2pred_0001 (protein)
chain: SSSSSSDEEERAEELAREAEEIEDPHEAIRLLREAARLAAKTDNPELLKLVAEVAKKLLSSSSSS
B17: il10ra_site1_sap_3_mot_HHH_b2_06142_af2_000000101_0001_1_18_H_._HHH_b1_06736_0001_0000100001_0000002_0_0001_af2pred_dldesign_0_af2pred (protein)
chain: SSSSNPQEVVQLIHEARRLLDEGRLDEARAALDKARALAEALGDAELIAAVDKVRKLLEASSSSS
B18: il10ra_site1_normal_mot_8756ee2cf497b5429c717dfc0c0bcfd6_0001_000000186_0001_1_13_H_._HHH_b1_00068_0001_0000100008_0000002_0 (protein)
chain: SSSSDFELAQRAVELLAEVDEQGDEELLEEAREFVEEAIKEAKSDVIRVQLEYILRQLERSSSSS

target: il10ra, Q13651; test: yeast display titration

Row | Binder | apparent Kd
1 | B1 | inactive: no binding seen
2 | B2 | inactive: no binding seen
3 | B3 | inactive: no binding seen
4 | B4 | inactive: no binding seen
5 | B5 | inactive: no binding seen
6 | B6 | inactive: no binding seen
7 | B7 | inactive: no binding seen
8 | B8 | inactive: no binding seen
9 | B9 | inactive: no binding seen
10 | B10 | inactive: no binding seen
11 | B11 | inactive: no binding seen
12 | B12 | inactive: no binding seen
13 | B13 | inactive: no binding seen
14 | B14 | inactive: no binding seen
15 | B15 | inactive: no binding seen
16 | B16 | inactive: no binding seen
17 | B17 | inactive: no binding seen
18 | B18 | inactive: no binding seen

Quoted from the listing.
apparent Kd, B3 reads inactive: no binding seen
apparent Kd, B8 reads inactive: no binding seen
